Test results published in article PMC8621254.
For at least one entry, the source does not settle the construct or the ends of the probe. Results from cells or extracts need not show a direct contact. For some of these results: A negative result means that nothing was seen under these conditions.

Chains of the proteins cited; added tags and fusions are not shown. Chains listed by the source or under a name are the forms on record and can include a tag or linker.
UniProt P08047, whole entry: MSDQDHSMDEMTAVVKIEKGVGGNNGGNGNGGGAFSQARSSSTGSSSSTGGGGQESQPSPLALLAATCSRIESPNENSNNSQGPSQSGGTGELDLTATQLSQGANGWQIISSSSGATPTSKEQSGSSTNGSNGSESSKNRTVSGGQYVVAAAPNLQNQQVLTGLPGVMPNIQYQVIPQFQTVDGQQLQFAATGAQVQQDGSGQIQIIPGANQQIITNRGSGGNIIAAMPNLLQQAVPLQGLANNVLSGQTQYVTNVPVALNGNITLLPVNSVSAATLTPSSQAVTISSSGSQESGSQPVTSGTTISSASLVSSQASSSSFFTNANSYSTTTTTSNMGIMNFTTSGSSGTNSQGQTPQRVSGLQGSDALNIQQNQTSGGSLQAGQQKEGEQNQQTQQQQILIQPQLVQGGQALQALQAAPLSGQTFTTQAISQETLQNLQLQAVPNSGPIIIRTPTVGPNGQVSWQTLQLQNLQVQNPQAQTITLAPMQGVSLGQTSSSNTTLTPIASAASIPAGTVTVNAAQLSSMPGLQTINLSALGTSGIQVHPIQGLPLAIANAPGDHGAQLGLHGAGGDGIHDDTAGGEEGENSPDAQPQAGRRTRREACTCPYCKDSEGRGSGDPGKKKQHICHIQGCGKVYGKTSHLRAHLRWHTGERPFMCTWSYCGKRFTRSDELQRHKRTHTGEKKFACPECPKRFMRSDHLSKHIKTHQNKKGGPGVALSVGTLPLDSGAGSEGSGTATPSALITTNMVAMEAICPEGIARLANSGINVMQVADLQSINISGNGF
AP-1 (c-Fos/c-Jun) (Homo sapiens), one chain, as listed by the source, chain 2 of 2: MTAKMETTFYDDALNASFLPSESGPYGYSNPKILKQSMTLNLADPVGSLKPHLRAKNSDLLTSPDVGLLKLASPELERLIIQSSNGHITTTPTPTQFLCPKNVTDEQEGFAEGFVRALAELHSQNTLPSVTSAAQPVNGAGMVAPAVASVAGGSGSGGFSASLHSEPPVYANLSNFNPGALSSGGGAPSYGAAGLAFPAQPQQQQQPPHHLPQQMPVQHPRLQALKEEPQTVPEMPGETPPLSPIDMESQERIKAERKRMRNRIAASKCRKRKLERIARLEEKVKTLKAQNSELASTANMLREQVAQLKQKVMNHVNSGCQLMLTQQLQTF
AP-1 (c-Fos/c-Jun) (Homo sapiens), one chain, as listed by the source, chain 1 of 2: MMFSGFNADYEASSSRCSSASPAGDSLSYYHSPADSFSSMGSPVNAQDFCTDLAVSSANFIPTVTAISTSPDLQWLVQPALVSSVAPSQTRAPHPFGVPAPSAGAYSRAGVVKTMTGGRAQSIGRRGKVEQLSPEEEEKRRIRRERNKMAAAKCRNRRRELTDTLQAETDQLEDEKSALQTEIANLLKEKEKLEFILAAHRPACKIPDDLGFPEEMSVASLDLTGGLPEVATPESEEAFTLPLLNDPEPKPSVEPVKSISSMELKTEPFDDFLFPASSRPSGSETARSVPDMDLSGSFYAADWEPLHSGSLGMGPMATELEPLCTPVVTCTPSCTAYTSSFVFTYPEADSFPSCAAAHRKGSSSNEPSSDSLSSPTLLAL

Assays:
[1] = tested on: AP-1 (c-Fos/c-Jun) (Homo sapiens); test: competition with a labelled probe; conditions: 15 ug hCEC nuclear extract, 0.5 ug poly(dI:dC), 50 mM KCl, 10 mM Hepes pH 7.9, 10% glycerol, 0.1 mM EDTA, 0.5 mM DTT, 0.25 mM PMSF, 6% native gel in Tris-glycine, 4 C, protein in an extract
[2] = tested on: Sp1 + Sp3; test: competition with a labelled probe; conditions: 15 ug hCEC nuclear extract, 0.5 ug poly(dI:dC), 50 mM KCl, 10 mM Hepes pH 7.9, 10% glycerol, 0.1 mM EDTA, 0.5 mM DTT, 0.25 mM PMSF, 6% native gel in Tris-glycine, 4 C, protein in an extract
[3] = tested on: Sp1 + Sp3; test: EMSA; conditions: labeled Sp1/3 probe, self-competition complete at 500-fold; 15 ug hCEC nuclear extract, 0.5 ug poly(dI:dC), 50 mM KCl, 10 mM Hepes pH 7.9, 10% glycerol, 0.1 mM EDTA, 0.5 mM DTT, 0.25 mM PMSF; 6% native gel in Tris-glycine, 4 C; protein in an extract; label: 5'-32P when used as probe
[4] = tested on: AP-1 (c-Fos/c-Jun) (Homo sapiens); test: EMSA; conditions: labeled AP-1 probe, self-competition at 500-fold; 15 ug hCEC nuclear extract, 0.5 ug poly(dI:dC), 50 mM KCl, 10 mM Hepes pH 7.9, 10% glycerol, 0.1 mM EDTA, 0.5 mM DTT, 0.25 mM PMSF; 6% native gel in Tris-glycine, 4 C; protein in an extract; label: 5'-32P when used as probe
[5] = biological target: Sp1 (Homo sapiens) (UniProt P08047); test: EMSA supershift; conditions: Sp1 antibody; 15 ug hCEC nuclear extract, 0.5 ug poly(dI:dC), 50 mM KCl, 10 mM Hepes pH 7.9, 10% glycerol, 0.1 mM EDTA, 0.5 mM DTT, 0.25 mM PMSF; 6% native gel in Tris-glycine, 4 C; protein in an extract; label: 5'-32P when used as probe
[6] = tested on: AP-1 (c-Fos/c-Jun) (Homo sapiens); test: EMSA supershift; conditions: c-Fos/c-Jun antibodies; 15 ug hCEC nuclear extract, 0.5 ug poly(dI:dC), 50 mM KCl, 10 mM Hepes pH 7.9, 10% glycerol, 0.1 mM EDTA, 0.5 mM DTT, 0.25 mM PMSF; 6% native gel in Tris-glycine, 4 C; protein in an extract; label: 5'-32P when used as probe
[7] = tested on: Sp1 + Sp3; test: EMSA supershift; conditions: Sp1 and Sp3 antibodies combined; 15 ug hCEC nuclear extract, 0.5 ug poly(dI:dC), 50 mM KCl, 10 mM Hepes pH 7.9, 10% glycerol, 0.1 mM EDTA, 0.5 mM DTT, 0.25 mM PMSF; 6% native gel in Tris-glycine, 4 C; protein in an extract; label: 5'-32P when used as probe
[8] = labeled CLU -203/-153, 500-fold

Q: Does “GATCATATCTGCGGGGCGGGGCAGAC / GATCCTGTGTCTGCCCCGCCCCGCAG [Sp1/3 consensus]” bind ([1]; labeled CLU -203/-153, AP-1 complex increased (unwounded extract), label: 5'-32P when used as probe)?
A: no binding

Q: Does “GATCATATCTGCGGGGCGGGGCAGAC / GATCCTGTGTCTGCCCCGCCCCGCAG [Sp1/3 consensus]” bind ([2]; labeled CLU -203/-153, removes complexes a and c, label: 5'-32P when used as probe)?
A: binds

Q: Does “GATCATATCTGCGGGGCGGGGCAGAC / GATCCTGTGTCTGCCCCGCCCCGCAG [Sp1/3 consensus]” bind [3]?
A: binds

Q: Does “GATCCCCGCGTTGAGTCATTCGCCTC / GATCGAGGCGAATGACTCAACGCGGG [AP1 consensus]” bind ([1]; labeled CLU -203/-153, removes complex b at 500-fold, label: 5'-32P when used as probe)?
A: binds

Q: Does “GATCCCCGCGTTGAGTCATTCGCCTC / GATCGAGGCGAATGACTCAACGCGGG [AP1 consensus]” bind ([2]; labeled CLU -203/-153, Sp1/Sp3 complexes unaffected, label: 5'-32P when used as probe)?
A: no binding

Q: Does “GATCCCCGCGTTGAGTCATTCGCCTC / GATCGAGGCGAATGACTCAACGCGGG [AP1 consensus]” bind [4]?
A: binds

Q: Does “GATCCGGCATTCTTTTTTTTTGAGTCATGCAGGTTTGCAGCCAGCCCCAAAGGGG / GATCCCCCCTTTGGGGCTGGCTGCAAACCTGCATGACTCAAAAAAAAAGAATGCC [CLU -203/-153 Mutant 2]” bind ([1]; labeled AP-1 probe, as efficient as AP-1 consensus)?
A: binds

Q: Does “GATCCGGCATTCTTTTTTTTTGAGTCATGCAGGTTTGCAGCCAGCCCCAAAGGGG / GATCCCCCCTTTGGGGCTGGCTGCAAACCTGCATGACTCAAAAAAAAAGAATGCC [CLU -203/-153 Mutant 2]” bind ([2]; labeled Sp1/3 probe, no competition up to 750-fold)?
A: no binding

Q: Does “GATCCGGCATTCTTTGGGCGTGAGTCATGCAGGTTTGCATTTAGTTTCAAAGGGG / GATCCCCCCTTTGAAACTAAATGCAAACCTGCATGACTCACGCCCAAAGAATGCC [CLU -203/-153 Mutant 1]” bind ([2]; labeled Sp1/3 probe, as effective as wild type)?
A: binds

Q: Does “GATCCGGCATTCTTTGGGCGTGAGTCATGCAGGTTTGCAGCCAGCCCCAAAGGGG / GATCCCCCCTTTGGGGCTGGCTGCAAACCTGCATGACTCACGCCCAAAGAATGCC [CLU -203/-153]” bind ([1]; labeled AP-1 probe, label: 5'-32P when used as probe)?
A: binds

Q: Does “GATCCGGCATTCTTTGGGCGTGAGTCATGCAGGTTTGCAGCCAGCCCCAAAGGGG / GATCCCCCCTTTGGGGCTGGCTGCAAACCTGCATGACTCACGCCCAAAGAATGCC [CLU -203/-153]” bind ([2]; labeled Sp1/3 probe, as efficient as Sp1/3 consensus, label: 5'-32P when used as probe)?
A: binds

Q: Does “GATCCGGCATTCTTTGGGCGTGAGTCATGCAGGTTTGCAGCCAGCCCCAAAGGGG / GATCCCCCCTTTGGGGCTGGCTGCAAACCTGCATGACTCACGCCCAAAGAATGCC [CLU -203/-153]” bind [5]?
A: binds

Q: Does “GATCCGGCATTCTTTGGGCGTGAGTCATGCAGGTTTGCAGCCAGCCCCAAAGGGG / GATCCCCCCTTTGGGGCTGGCTGCAAACCTGCATGACTCACGCCCAAAGAATGCC [CLU -203/-153]” bind [6]?
A: binds

Q: Does “GATCCGGCATTCTTTGGGCGTGAGTCATGCAGGTTTGCAGCCAGCCCCAAAGGGG / GATCCCCCCTTTGGGGCTGGCTGCAAACCTGCATGACTCACGCCCAAAGAATGCC [CLU -203/-153]” bind [7]?
A: binds

Q: Does “TTATTTTGGATTGAAGCCAATATGAG (double strand) [NFI]” bind [1, 8]?
A: no binding

Q: Does “TTATTTTGGATTGAAGCCAATATGAG (double strand) [NFI]” bind [2, 8]?
A: no binding
